Consider one molecule from US5491132A.

Sequences of proteins named here, by UniProt entry; tags and fusion partners are left off. Residues count along the entry.
UniProt P00797, 67-406 limits assumed: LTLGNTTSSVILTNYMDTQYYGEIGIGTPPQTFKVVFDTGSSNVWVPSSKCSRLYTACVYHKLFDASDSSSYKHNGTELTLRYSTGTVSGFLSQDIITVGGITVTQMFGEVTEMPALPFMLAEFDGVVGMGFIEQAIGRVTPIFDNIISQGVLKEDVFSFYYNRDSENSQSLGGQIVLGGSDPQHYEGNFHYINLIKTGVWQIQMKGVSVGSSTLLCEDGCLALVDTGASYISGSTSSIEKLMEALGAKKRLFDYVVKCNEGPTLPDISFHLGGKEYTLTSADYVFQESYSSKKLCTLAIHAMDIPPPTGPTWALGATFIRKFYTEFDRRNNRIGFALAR

Structures were worked out from names or drawings and are uncertain.

The target in this test is renin (Homo sapiens, UniProt P00797). As to the kind of experiment: Inhibition of human plasma renin activity (angiotensin I formation, RIA). The following applies: pooled human plasma, endogenous renin and angiotensinogen, pH 6.0, 37° C., 90 minutes incubation, Ang I measured by RIA; Probit method; tested form: 2HCl. As to the method: Human plasma was collected from male volunteers pretreated with no drugs and used as a pool. Disodium salt of ethylenediaminetetraacetic acid (EDTA) was used as the anticoagulant. Plasma renin activity was measured as the rate of angiotensin I (Ang I) formation after incubation (37° C.) of the endogenous renin and angiotensinogen in plasma at pH 6.0. The incubation mixture contained 250 μl of plasma, 5 μl of (phenylmethyl)sulfonyl fluoride, 30 μl of buffer (sodium, potassium-phosphate, pH 6.0), and 15 μl of an appropriate concentration of test compound in 50% ethyl alcohol-water vehicle. The Ang I formed after 90 minutes of incubation was measured by radioimmunoassay (RIA) which was carried out with a commercial kit, RENIN.RIABEAD (Trademark: manufactured by Dainabot Co., Ltd.). Samples were incubated in duplicate and each tube was measured in duplicate in the RIA. Percentage inhibition of plasma renin activity was calculated by comparing the amount of Ang I produced with and without a test compound. The concentration of test compound that inhibited plasma renin activity by 50% (IC50) was determined by Probit method.

With `CC(C)CC[C@H](O)[C@H](CC1CCCCC1)NC(=O)[C@H](Cc1c[nH]cn1)N(C)C(=O)[C@H](Cc1ccccc1)NC(=O)N(C)CCc1ccccn1`, the IC50 (commonly the concentration needed to halve the response being measured) amounted to 9.6 nM.
